{"source": "patent US11364187B2", "about": "“Compositions and methods for preventing and reversing aspects of aging” (CENTERS FOR AGE CONTROL, INC., priority 2017, dated 2022)", "origin": "cited, not measured here", "details": "topical treatment", "note": "At least one structure is not confirmed: it was looked up by name or label, or the drawing left a doubt.", "data": [{"smiles": "COc1cc(/C=C/c2ccc(O)cc2)cc(OC)c1", "note": "[Pterostilbene]", "values": [{"measurement": "protection against UVB radiation and cancer", "value": "protect against UVB radiation and cancer"}]}]}
